Test results: patent US6562115B2, “Azo dyes and their preparation and use” (Ilford Imaging Switzerland GmbH, priority 2000, dated 2003)

Assay: Color coordinates (L*a*b*) of ink jet printed samples
Conditions: illuminant D65; for L* value (material 2) / a* value (material 2) / b* value (material 2): printed ink on Ilfojet Photo Grade Clear Film UMCF4 (material 2); for L* value (material 1) / a* value (material 1) / b* value (material 1): printed ink on Ilfojet Photo Grade Glossy RC Paper UM2GP6 (material 1)

In the case of `Nc1ccc2cc(S(=O)(=O)[O-])cc(O)c2c1N=Nc1cc(NC(=O)CCCC(=O)[O-])ccc1S(=O)(=O)[O-].[Na+].[Na+].[Na+]` [Compound 121], the “L* value (material 2)” value is reported as 52.9, the “a* value (material 2)” value is reported as 76.5 and the “b* value (material 2)” value is reported as 24.5. The “L* value (material 1)” value was 47.3, the “a* value (material 1)” value was 71.0 and the “b* value (material 1)” value was 31.6.

In the case of `Nc1ccc2cc(S(=O)(=O)[O-])cc(O)c2c1N=Nc1ccc(NC(=O)CCC(=O)[O-])cc1S(=O)(=O)[O-].[Na+].[Na+].[Na+]` [Compound 100], the “L* value (material 2)” value is reported as 49.6, the “a* value (material 2)” value is reported as 81.8 and the “b* value (material 2)” value is reported as 1.2. For the same compound, the “L* value (material 1)” value was 45.4, the “a* value (material 1)” value was 75.2 and the “b* value (material 1)” value was 12.7.

With `Nc1ccc2cc(S(=O)(=O)[O-])cc(O)c2c1N=Nc1ccc(NC(=O)COCC(=O)[O-])cc1S(=O)(=O)[O-].[Na+].[Na+].[Na+]` [Compound 104] the “L* value (material 2)” value was 48.4, the “a* value (material 2)” value was 83.2 and the “b* value (material 2)” value was 2.1. The “L* value (material 1)” value was 46.6, the “a* value (material 1)” value was 74.0 and the “b* value (material 1)” value was 9.6.

For Acid Red 37 [reference compound], the “L* value (material 2)” value was 48.4, the “a* value (material 2)” value was 81.4 and the “b* value (material 2)” value was 6.4. The “L* value (material 1)” value was 44.7, the “a* value (material 1)” value was 74.5 and the “b* value (material 1)” value was 16.5.

For `CNc1ccc2cc(S(=O)(=O)[O-])cc(O)c2c1N=Nc1ccc(NC(=O)C=CC(=O)[O-])cc1S(=O)(=O)[O-].[Na+].[Na+].[Na+]` [Compound 112], the “L* value (material 2)” value was 53.3, the “a* value (material 2)” value was 79.9 and the “b* value (material 2)” value was 12.7. The “L* value (material 1)” value was 48.6, the “a* value (material 1)” value was 74.7 and the “b* value (material 1)” value was 24.3.

In the case of `Nc1ccc2cc(S(=O)(=O)[O-])cc(O)c2c1N=Nc1ccc(NC(=O)CCCC(=O)[O-])cc1S(=O)(=O)[O-].[Na+].[Na+].[Na+]` [Compound 101], the “L* value (material 2)” value is reported as 49.5, the “a* value (material 2)” value is reported as 83.0 and the “b* value (material 2)” value is reported as −0.5. The “L* value (material 1)” value was 45.7, the “a* value (material 1)” value was 75.8 and the “b* value (material 1)” value was 12.0.

With `Nc1ccc2cc(S(=O)(=O)[O-])cc(O)c2c1N=Nc1cc(NC(=O)CCC(=O)[O-])ccc1S(=O)(=O)[O-].[Na+].[Na+].[Na+]` [Compound 120] the “L* value (material 2)” value was 51.7, the “a* value (material 2)” value was 75.3 and the “b* value (material 2)” value was 26.8. For the same compound, the “L* value (material 1)” value was 46.5, the “a* value (material 1)” value was 69.5 and the “b* value (material 1)” value was 31.2.

For `Cc1cc(N=Nc2c(N)ccc3cc(S(=O)(=O)[O-])cc(O)c23)c(S(=O)(=O)[O-])cc1NC(=O)CCCC(=O)[O-].[Na+].[Na+].[Na+]` [Compound 103], the “L* value (material 2)” value was 50.1, the “a* value (material 2)” value was 80.2 and the “b* value (material 2)” value was 6.9. For the same compound, the “L* value (material 1)” value was 46.5, the “a* value (material 1)” value was 72.4 and the “b* value (material 1)” value was 15.9.

In the case of `Nc1ccc2cc(S(=O)(=O)[O-])cc(O)c2c1N=Nc1ccc(Nc2nc(NCCS(=O)(=O)[O-])nc(NCCS(=O)(=O)[O-])n2)cc1S(=O)(=O)[O-].[Na+].[Na+].[Na+].[Na+]` [II, reference compound], the “L* value (material 2)” value is reported as 44.5, the “a* value (material 2)” value is reported as 84.7 and the “b* value (material 2)” value is reported as −13.0. For the same compound, the “L* value (material 1)” value was 42.0, the “a* value (material 1)” value was 75.6 and the “b* value (material 1)” value was −1.2.

In the case of `Cc1cc(N=Nc2c(N)ccc3cc(S(=O)(=O)[O-])cc(O)c23)c(S(=O)(=O)[O-])cc1NC(=O)CCC(=O)[O-].[Na+].[Na+].[Na+]` [Compound 102], the “L* value (material 2)” value is reported as 49.1, the “a* value (material 2)” value is reported as 80.7 and the “b* value (material 2)” value is reported as 10.2. For the same compound, the “L* value (material 1)” value was 44.9, the “a* value (material 1)” value was 73.3 and the “b* value (material 1)” value was 17.9.
